Results taken from patent US20210238281A1.
Numbering of substitutions follows the chain as printed. Results are given in words; binding and its absence hold for the method and conditions named. Some results given as binding are weak or reduced against the parent protein; the word gives no strength.

Sequences of proteins named here, by UniProt entry; tags and fusion partners are left off. Residues count along the entry.
UniProt Q16653, residues 30-154: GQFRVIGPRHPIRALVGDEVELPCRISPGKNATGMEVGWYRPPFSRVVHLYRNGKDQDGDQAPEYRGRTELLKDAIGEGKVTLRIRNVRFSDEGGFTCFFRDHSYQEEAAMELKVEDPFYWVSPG
UniProt Q61885, residues 29-156: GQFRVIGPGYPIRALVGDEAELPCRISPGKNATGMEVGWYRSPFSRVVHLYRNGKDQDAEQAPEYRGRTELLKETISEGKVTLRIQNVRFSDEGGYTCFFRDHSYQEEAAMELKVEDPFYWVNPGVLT

B1: anti-MOG MO3B-03 antibody (scFv, V domains shown)
VH: QVQLQQSGPGLVRPSQTLSLTCAISGDSVSSSSAAWNWVRSPSRGLEWLGRTYYRSKWYYDYAVSVKNRIAINPDTSKNQFSLHLNSVTPEDTAVYYCATGWLRGHLDYWGQGTLVTVSS
VL: AIQMTQSPSSVSASVGDRVTITCRATQSISTYLNWYQQKVGRGPKLLVYAASRLQTGVPSRFSGSGSGTDFTLTISSLQPEDSATYYCQQSYSAPPAFGGGTKVEIK
B2: anti-MOG MO3F-02 antibody (scFv, V domains shown)
VH: QVQLQQSGPGLVKPSQTLSLTCAISGDSVSSNSAAWNWIRKSPSRGLEWLGRTYYRSKWYNDYAVSVKSRITINPDTSKNQFSLQLSSVTPEDTAVYYCARASAGTFGYWGQGTLVTVSS
VL: DIVMTQSPSSLSASVGDRVTMTCRASQTINTYLNWYQQKPGKAPKLLIYAASTLQSGVPSRFSGSGSGTDFSLTISSLQPEDFATYYCQHGYNNPPFTFGPGTKVDIK
B3: anti-MOG MO4B-43 antibody (scFv, V domains shown)
VH: DEVQLLESGGGLVPGGSLRLSCEVSGFSFSNHAMHWVRQAPGKALEHLSVLGSDGRSTYYADSVKGRFTISRDISKTTVYLQMGSLRPGDMGVYYCARGLYGDHWDASDLWGQGTMVTVSS
VL: EIVMTQSPATLSVSPAERVILSCRASQSVGNNVAWFQQKPGQAPRLLIHGASSRATGIPTRFSGSGSGTELTLTISSLQSEDFAVYYCQQYGSAPITFGQGTRLEIK
B4: anti-MOG MO3J-12 antibody (scFv, V domains shown)
VH: EVQLLESGGGLVQPGGSLRLSCAASGFTFSTYWMHWVRQAPGRGLVWVSRINTDGSSTDYADSVKGRFTISRDNAKNTLYLQMNSLRAEDTAVYSCARGGQLVAAANDNWLDPWGQGTLVTVSS
VL: AIQLTQSPSSLSASAGDRVTITCRASQSINNYLNWYQQKPGKAPKVLIYGASNLQSGVPSRFSGSGSGTDFTLTISSLQPEDFATYYCQQSYSTPRTFGQGTKVEIK
B5: anti-MOG MO3J-19 antibody (scFv, V domains shown)
VH: EVQLVQSGAEVKKPGASVKVSCKASGYTFTSYGISWVRQAPGQGLEWMGWISAYNGNTNYAQKLQGRVTMTTDTSTSTAYMELRSLRSDDTAVYYCARNMGCSSTSCFVSWFDPWGQGTLVTVSS
VL: QSVLTQPPSASGTPGQRVTISCSGSTSNIGSQIVNWYQQLPGTAPRLIIYNDNERPSGVSDRFSGSKSDTSASLAISGLQSEDEADYYCAAWDDSLNGYVFGTGTKVTVL
B6: anti-MOG MO3J-23 antibody (scFv, V domains shown)
VH: DQVQLVQSGAEVKPGASVKVSCKASGYTFTSYGISWVRQAPGQGLEWMGWISAYNGNTNYAQKLQGRVTMTTDTSTSTAYMELRSLRSDDTAVYYCARDPVGSLRPYYMDVWGEGTTVTVSS
VL: DIVMTQSPSTLSASVGDRVTITCRASQSISTWLAWYQQKPGKAPKLLIYAASSLQSGVPSRFSGSGSGTDFTLTISSLQPEDFATYYCQQSYSTPRTFGQGTKVEIK
B7: anti-MOG MO3J-26 antibody (scFv, V domains shown)
VH: QVQLVQSGAEVKKPGSSVKVSCKASGGTFSTYTLSWVRQAPGKGLEWMGGFDPEDGETIYAQKFQGRVTMTEDTSTDTAYLELSSLRSDDTAVYYCAADEFWGPGTLVTVSS
VL: QSVLTQPPSVSAAPGQTVTISCSGSSSNIGNNYVSWYQQLPGTAPKLLIYDNNKRPSGIPDRFSGSKSGTSATLGITGLQTGDEADYYCGTWDSSLSAVVFGGGTKLTVL
B8: anti-MOG MO3J-37 antibody (scFv, V domains shown)
VH: EVQLVESGGGLVQPGRSLRLSCAASGFTFDDYAMHWVRQAPGKGLEWVSGISWNSGSIGYADSVKGRFTISRDNAKNSLYLQMNSLRAEDTALYYCAKDMRAVAGTEGAFDIWGQGTMVTVSS
VL: QSVVTQPPSMSAAPGQKVTISCSGSSSNIGNNYVSWYQQLPGTAPKLLIYENNKRPSGISDRFSGSKSGTSATLGITGLQTGDEADYYCATGDSGMTLVFGGGTKLTVL
B9: anti-MOG MO3J-43 antibody (scFv, V domains shown)
VH: EVQLVESGGGLVKPGGSLRLSCAASGFTFSDYYMSWIRQAPGKGLEWVSYISSSGNTIYYADSVKGRFTISRDNAKNSLYLQMNSLRAEDTAVYYCAKDSPVPTVWGQGTLVTVSS
VL: QSVVTQPPSVSGAPGQRVSISCTGGSSNIGADYDVHWYQQLPGTAPKLLIYGNNNRPSGVPDRFSGSKSGTSASLAISGLQPEDEAVYYCQSYDSGLRSSVFGGGTKLTVL
B10: anti-MOG MO3J-44 antibody (scFv, V domains shown)
VH: QVQLVQSGAEVRKPGASVKISCQISGYNFISYTIQWVRQAPGQRPEWMGWINSGNGNTKYSQKFQGRVTFTRDTSTSTAYMELSSLRSEDTAVYYCARSGIGPWGQGTLVTVSS
VL: EIVLTQPPDLQSVTPKKKVTITCRASQSIGNSLHWCQQKPDQSPKLLIKYASQSISGVPSRFSGSGSGTDFTLTINSLEAEDAATYYCHQSSSLPFTFGPGTKVDIK
B11: anti-MOG MO3J-51 antibody (scFv, V domains shown)
VH: B5 VH with R87G
VL: B7 VL with Q16R, T17K, S35A, D51E, D61G, G69A, S94N, V99W
B12: anti-MOG MO3I-56 antibody (scFv, V domains shown)
VH: QVQLVESGGGVVQPGSSLRLSCTASGFKFDDYAMHWVRQAPGKGLEWVSGISWNSGSIGYADSVKGRFTISRDNAKNSLYLQMNSLRAEDTASYYCAKSLPHYYDSPPYGMDVWGQGTLVTVSS
VL: DIQLTQSPSSLSASVGDRVTITCRASQGISSALAWYQQKPGKAPKLLIYDASSLESGVPSRFSGSGSGTDFTLTISSLQPEDFATYYCQHRGTFGGGTKVDIK
B13: anti-MOG MO3I-57 antibody (scFv, V domains shown)
VH: QVQLVQSGAEVKKPGASVKVSCKASGYTFSSYGISWVRQAPGQGLEWMGWISANTGNTDYAERLQGRVTMTTDTSTTTAYMELRSLRSDDTAVYYCARGAPNGYAVDYWGQGTLVTVSS
VL: QSVLTQPPSASGAPGQRVSISCSGSSSNIGTNHVYWYQQFTGMAPKLIIDTNNQRPPGVPARFSGSKSGTSASLAISGLRSEDESDYYCLTWDDGLYDWVFGGGTKLTVL
B14: anti-MOG MO3I-60 antibody (scFv, V domains shown)
VH: EVQLVESGGGLVKPGGSLGLSCAASGFTFTNAWGHWVRQAPGKGLEWVGRIKSKTDGGTTDYAAPVKDRFSISRDDSKNTLYLQMNSPTTEDTAVYYCATENGMDIVTTFDSWGQGTLVTVSS
VL: AIRMTQSPSSLSASVGDRVTITCRASQSIGSYLSWYRQKPGKAPKLLIYDSSTLQSGVASRFSGSGSGTDFTLTISALQPEDFATYYCHQSYRTPLSFGGGTKVEIK
B15: anti-MOG MO3I-63 antibody (scFv, V domains shown)
VH: QVQLVQSGAEVKTPGASVKISCKASGYAFTSYAMHWVRAPGQGLEWMGWINAANANTKYSQRFQGRVTITRDTSASTAYMELNSLRSEDTAVYYCASSEDISRSNYYNYYMDVWGKGTTVTVSS
VL: DIVMTQSPSSLSASVGDRVTITCRASQTITTSLAWFQHRPGKAPKLLIYSASSLQSGVPSRFSGSGSGTDFTLTISSLQPEDFATYSCQQTYSAPPTFGGGTKVEIK
B16: anti-MOG MO3I-69 antibody (scFv, V domains shown)
VH: DQVQLVQSGAEVKPGASVKVSCKASGYTFTYYYLHWVRQAPGQGLEWMGWINPNSGATIFAQKFQGRVTLTRDTSISTAYLDLSRLRSDDTAVYYCARASMAYQYHSDVDYWGLGTLVTVSS
VL: QSVLTQPPSVSGAPGQRVTISCTGSSSNIGAGYDVHWYQQLPGTAPKLLIYGNSNRPSGVPDRFSGSKSGTSASLAITGLQAEDEADYYCQSYDSSLVVFGGGTKLTVL
B17: anti-MOG MO4H-55 antibody (scFv, V domains shown)
VH: QVQLQQSGPGLVKPSQTLSLTCAISGDSVSSNSAAWNWIRQSPSRGLEWLGRTYYRSKWYNDYAESVKSRMTVTSDTSKNQVSLHLNSVTPEDTAVYYCAREHIAVPGVFDIWGQGTLVTVSS
VL: DVVMTQPPSASGTPGQGVTISCSGSSSNIGSNTVNWYQQLPGTAPKLLIYGSGQRPSGVPDRFSGSRSGTSASLAISGLQSEDEADYYCAAWDDSLNGRVFGQGTKVDIT
B18: anti-MOG MO4H-118 antibody (scFv, V domains shown)
VH: EVQLVQSGAEVKKPGASVKVSCKVSGYTLTELSMHWVRQAPGKGLEWMGGFDPEDGETIYAQKFQGRVTMTEDTSTDTAYMELSSLRSEDTAVYYCATIGPKVAAHTYYFDYWGQGTLVTVSS
VL: DIQLTQSPSSLSASVGDRVTITCRASQTIVTYLNWYQQKPGKAPNLLITDASSLQSGVPSRFSGTESGTDFTLTISSLQPEDFGSYYCQSYMNPITFGQGTRLEIN
B19: anti-MOG MO3J-72 antibody (scFv, V domains shown)
VH: EVQLVESGGGSVKPGGSLRLSCAASGFRFDDYAMHWVRQAPGKGLEWVSGISWNSGAIGYADSVQGRFTISGDNAKNTLYLQMNGLRVEDTAMYYCARDGHGDYPIDYWGQGTLVTVSS
VL: QSVLTQPPSVSGAPGQRVSISCTGSGSNIGAGFDVHWYQQVPGTTPKLLIYGNNNRPSGVPDRFSGSTSATSASLAITGLQADDEADYYCQSYDRSLRYVFGTGTKLTVL
B20: anti-MOG MO3I-30 antibody (scFv, V domains shown)
VH: EVQLLESGGGLVQPGGSLRLSCVASGFTFRSYWMHWVRQDPGEGLVWVSRVSGDGSSTNYADSVKGRFVISRDNAKDTLYLQMYSLRGEDTAVYYCLRGNDGYGNFDYWGQGTTVTVSS
VL: DVVMTQSPLSLPVTLGQPASISCRPSQSLVYSDGNTYLNWFQQRPGQSPRRLIYKVSNRDYVVPDRFSGSGSGTDFTLKISRVEAEDVGVYYCMQGTHWPLTFGGGTKVEIK

Each binder was assayed against recombinant human MOG protein (human) (UniProt Q16653) (assay: phage-scFv ELISA, compared with phage-scFv-8-18C5 positive control).

binding, binds:
B1
B2
B3
B4
B5
B6
B7
B8
B9
B10
B11
B12
B13
B14
B15
B16
B17
B18
B19
B20

The binders below were run against recombinant murine MOG protein (murine) (UniProt Q61885) in the same assay as above.

binding, binds:
B1
B2
B3
B4
B5
B6
B7
B8
B9
B10
B11
B12
B13
B14
B15
B16
B18
B20
